# Results as given in patent US20190225669A1.
# The chains behind the UniProt entries cited, without tags or fusion partners. Where a name states a change or a piece, a line headed by the entry shows the natural chain unless it says otherwise. Residues count along the entry.
# UniProt Q9UK05, residues 320-429: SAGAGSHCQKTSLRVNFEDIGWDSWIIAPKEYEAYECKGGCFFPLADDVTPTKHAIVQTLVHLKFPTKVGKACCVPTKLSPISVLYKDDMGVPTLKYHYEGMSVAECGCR
# UniProt P27037: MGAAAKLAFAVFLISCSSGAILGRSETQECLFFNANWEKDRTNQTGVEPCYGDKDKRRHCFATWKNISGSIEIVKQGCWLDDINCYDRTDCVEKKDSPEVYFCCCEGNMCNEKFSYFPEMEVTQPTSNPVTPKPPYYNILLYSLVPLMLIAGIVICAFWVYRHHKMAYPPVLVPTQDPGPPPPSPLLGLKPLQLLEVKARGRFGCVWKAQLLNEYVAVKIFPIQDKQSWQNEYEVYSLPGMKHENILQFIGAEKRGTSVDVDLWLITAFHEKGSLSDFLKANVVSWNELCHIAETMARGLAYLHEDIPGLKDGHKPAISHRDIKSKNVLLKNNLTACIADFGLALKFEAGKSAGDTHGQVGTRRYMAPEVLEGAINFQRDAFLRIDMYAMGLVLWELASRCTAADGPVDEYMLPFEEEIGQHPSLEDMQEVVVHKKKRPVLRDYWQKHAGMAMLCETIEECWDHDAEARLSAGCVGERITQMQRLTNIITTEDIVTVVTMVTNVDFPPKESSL
# No constants are given. Whether binding was seen depends on the method and setting. Some results given as binding are weak or reduced against the parent protein; the word gives no strength.
# How the values were obtained:
# activin B = biological target: T1, activin B (UniProt P09529); assay: Biacore SPR
# T1 sequence (looked up): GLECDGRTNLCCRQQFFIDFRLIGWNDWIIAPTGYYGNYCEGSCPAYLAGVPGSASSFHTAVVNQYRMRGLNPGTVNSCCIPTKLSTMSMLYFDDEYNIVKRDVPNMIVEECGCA
# BMP9 = BMP9 (UniProt Q9UK05); assay: Biacore SPR; kinetics indeterminate (transient)
substance,measurement,setting,value
ActRIIA-Fc homodimer (from UniProt P27037 20-135) (Fc fusion),binding,activin B,binds
same,binding,BMP9,binds
